{
  "sequences": {"note": "The chains behind the UniProt entries cited, without tags or fusion partners.", "UniProt Q9Y2I7, whole entry": "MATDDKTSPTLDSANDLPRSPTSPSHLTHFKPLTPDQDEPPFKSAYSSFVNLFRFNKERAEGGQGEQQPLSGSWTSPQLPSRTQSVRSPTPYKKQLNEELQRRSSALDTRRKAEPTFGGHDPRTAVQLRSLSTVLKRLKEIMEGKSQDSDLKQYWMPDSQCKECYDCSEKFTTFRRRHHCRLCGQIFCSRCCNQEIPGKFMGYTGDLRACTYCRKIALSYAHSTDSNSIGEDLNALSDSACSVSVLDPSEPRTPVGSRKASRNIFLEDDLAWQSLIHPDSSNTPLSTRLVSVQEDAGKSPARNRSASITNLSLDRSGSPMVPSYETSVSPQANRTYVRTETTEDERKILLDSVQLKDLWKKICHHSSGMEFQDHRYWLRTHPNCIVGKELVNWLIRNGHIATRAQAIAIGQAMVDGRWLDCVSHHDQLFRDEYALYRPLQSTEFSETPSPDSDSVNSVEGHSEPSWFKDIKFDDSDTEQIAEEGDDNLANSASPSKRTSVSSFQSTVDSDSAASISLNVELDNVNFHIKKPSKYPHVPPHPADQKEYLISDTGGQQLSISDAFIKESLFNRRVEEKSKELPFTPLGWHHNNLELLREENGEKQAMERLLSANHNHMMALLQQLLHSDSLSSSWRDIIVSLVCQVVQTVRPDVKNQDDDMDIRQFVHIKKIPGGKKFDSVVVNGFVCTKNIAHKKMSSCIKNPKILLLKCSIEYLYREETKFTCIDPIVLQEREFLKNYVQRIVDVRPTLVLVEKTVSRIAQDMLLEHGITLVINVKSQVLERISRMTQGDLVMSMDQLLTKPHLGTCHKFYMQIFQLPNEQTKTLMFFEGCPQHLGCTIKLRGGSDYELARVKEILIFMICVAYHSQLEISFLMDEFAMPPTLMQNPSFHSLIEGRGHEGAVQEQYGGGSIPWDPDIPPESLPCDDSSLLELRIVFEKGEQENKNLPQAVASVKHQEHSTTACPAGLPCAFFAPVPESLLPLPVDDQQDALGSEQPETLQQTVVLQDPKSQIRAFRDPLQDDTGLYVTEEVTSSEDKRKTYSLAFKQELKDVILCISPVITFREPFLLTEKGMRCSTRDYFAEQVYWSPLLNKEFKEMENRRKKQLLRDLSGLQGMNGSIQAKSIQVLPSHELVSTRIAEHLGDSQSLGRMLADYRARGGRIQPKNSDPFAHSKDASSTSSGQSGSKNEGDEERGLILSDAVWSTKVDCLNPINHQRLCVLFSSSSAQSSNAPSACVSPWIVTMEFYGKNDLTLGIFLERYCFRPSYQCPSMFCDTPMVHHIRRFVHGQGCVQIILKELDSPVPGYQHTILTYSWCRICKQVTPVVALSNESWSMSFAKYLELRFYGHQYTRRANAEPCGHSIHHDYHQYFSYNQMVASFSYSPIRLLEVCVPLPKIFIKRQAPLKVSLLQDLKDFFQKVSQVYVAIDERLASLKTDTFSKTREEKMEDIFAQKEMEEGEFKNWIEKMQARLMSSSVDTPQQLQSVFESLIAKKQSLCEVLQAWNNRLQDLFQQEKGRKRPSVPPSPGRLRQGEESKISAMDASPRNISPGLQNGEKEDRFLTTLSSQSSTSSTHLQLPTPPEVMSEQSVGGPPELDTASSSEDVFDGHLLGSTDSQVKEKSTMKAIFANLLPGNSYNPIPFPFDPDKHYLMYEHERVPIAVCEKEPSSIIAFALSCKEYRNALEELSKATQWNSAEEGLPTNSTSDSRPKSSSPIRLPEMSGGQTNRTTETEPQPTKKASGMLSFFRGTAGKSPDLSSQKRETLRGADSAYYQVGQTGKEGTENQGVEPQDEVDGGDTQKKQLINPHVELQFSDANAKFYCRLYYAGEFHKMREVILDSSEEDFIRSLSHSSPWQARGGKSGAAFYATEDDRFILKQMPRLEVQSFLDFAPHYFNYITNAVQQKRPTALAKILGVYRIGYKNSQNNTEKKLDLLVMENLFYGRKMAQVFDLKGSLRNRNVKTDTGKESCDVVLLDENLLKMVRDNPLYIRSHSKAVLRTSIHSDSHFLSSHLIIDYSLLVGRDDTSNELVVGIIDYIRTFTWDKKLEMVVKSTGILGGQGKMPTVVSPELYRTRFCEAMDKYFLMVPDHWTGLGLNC"},
  "source": "patent US20230146395A1",
  "about": "“Substituted Pyrimidines and Uses Thereof” (Verge Analytics, Inc., priority 2020, published 2023)",
  "biological_target": "Full length human recombinant PIKFYVE (Homo sapiens, UniProt Q9Y2I7)",
  "assay": "Inhibition of PIKfyve (microfluidic electrophoresis kinase assay, PI3P/PS substrate)",
  "conditions": "read-out: PIKfyve IC50, 12 concentrations, tested form: HCl",
  "note": "The match of structure and compound is tentative.",
  "data": [
    {"smiles": "C[C@@H](NC(=O)c1cc2nc(Nc3cc(-c4ccccc4)[nH]n3)nc(N3CCOCC3)c2o1)C1CC1", "values": [
      {"measurement": "IC50", "value": 0.7, "unit": "nM"}
    ]}
  ]
}
